Laboratory results published in publication PMC6063487.
No constants are given. Whether binding was seen depends on the method and setting. In cells and extracts the contact can be indirect. These calls come from enrichment with a bait or labelling near it, and not all partners need be listed.

Chains of the proteins cited; added tags and fusions are not shown.
UniProt Q9CYN2: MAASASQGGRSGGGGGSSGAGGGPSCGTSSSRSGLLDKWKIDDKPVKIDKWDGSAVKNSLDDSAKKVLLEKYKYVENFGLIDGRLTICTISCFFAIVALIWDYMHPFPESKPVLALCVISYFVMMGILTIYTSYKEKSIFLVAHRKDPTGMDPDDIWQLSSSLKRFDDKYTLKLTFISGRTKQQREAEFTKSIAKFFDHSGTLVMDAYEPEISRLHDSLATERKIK

T1: Neuronatin (NNAT), endogenous in MIN6 cells (mouse (endogenous in MIN6)) (UniProt Q61979)
T1 sequence: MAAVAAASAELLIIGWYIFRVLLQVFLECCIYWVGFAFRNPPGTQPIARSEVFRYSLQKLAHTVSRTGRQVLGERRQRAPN


Target: T1, Neuronatin (NNAT), endogenous in MIN6 cells (mouse (endogenous in MIN6))
Test: affinity purification with mass spectrometry; endogenous NNAT immunoprecipitated from MIN6 cell lysates (50 mM Tris-HCl pH 7.5, 150 mM NaCl, 1% Triton X-100, 1 mM EDTA) with rabbit polyclonal anti-NNAT and protein A-agarose, 4°C overnight; rabbit IgG as control IP; LC/MS of gel bands; proteins ranked by fold change versus control

| binding | Molecule |
| --- | --- |
| binds | Signal peptidase complex subunit 2 (SPCS2), endogenous in MIN6 cells (from UniProt Q9CYN2 1-226) |
| binds | Signal peptidase complex subunit 1 (SPCS1), endogenous in MIN6 cells (protein, UniProt Q9D958 1-161) MARGGARGCPCPSETSASGATAEVKRSAGRPCSRYRPPQTLLLNNRLRPFRCRYRSSATMLEHLSSLPTQMDYKGQKLAEQMFQGIILFSAIVGFIYGYVAEQFGWTVYIVMAGFAFSCLLTLPPWPIYRRHPLKWLPVQDLGTEDKKSGDRKIKRHAKNN |
